# Data as given in patent US6410054B1, “Immediate release eplerenone compositions” (G. D. Searle & Co., priority 1998, dated 2002).
# At least one compound was matched to its structure with a doubt left.
# Target: T1, aldosterone receptors (Homo sapiens, UniProt P08235)
# T1 construct: endogenous in cells; host or cells: healthy male human subjects (in vivo)
# T1 sequence (P08235 1-984): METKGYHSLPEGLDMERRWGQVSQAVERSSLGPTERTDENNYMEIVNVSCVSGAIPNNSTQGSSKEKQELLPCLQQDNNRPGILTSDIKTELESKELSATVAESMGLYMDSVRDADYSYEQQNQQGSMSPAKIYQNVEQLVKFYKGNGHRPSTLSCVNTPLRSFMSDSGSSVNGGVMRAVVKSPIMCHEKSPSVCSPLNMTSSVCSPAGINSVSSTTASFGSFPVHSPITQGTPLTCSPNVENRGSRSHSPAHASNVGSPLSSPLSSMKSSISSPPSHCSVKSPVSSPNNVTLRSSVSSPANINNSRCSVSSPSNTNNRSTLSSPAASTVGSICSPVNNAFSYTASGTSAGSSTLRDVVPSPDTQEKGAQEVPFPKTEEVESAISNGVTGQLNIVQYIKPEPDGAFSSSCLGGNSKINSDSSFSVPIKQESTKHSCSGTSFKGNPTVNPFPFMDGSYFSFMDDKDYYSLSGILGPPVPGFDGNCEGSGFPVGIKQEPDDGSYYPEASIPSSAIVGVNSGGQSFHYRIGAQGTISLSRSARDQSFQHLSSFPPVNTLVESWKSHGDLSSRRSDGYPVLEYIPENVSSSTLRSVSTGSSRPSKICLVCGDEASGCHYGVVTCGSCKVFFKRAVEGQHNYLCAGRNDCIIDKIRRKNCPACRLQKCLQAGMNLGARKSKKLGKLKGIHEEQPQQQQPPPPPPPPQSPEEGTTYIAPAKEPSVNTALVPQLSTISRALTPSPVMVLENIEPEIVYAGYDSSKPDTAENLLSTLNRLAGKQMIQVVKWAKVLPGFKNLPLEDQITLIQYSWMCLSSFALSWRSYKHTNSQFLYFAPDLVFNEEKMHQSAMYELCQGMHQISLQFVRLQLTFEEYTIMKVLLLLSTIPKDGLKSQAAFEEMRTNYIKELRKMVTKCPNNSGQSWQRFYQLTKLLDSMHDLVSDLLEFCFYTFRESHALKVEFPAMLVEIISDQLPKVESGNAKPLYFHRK
# Experiment: Single dose study: antialdosterone activity, urinary sodium and potassium after fludrocortisone
# Assay type: in vivo, humans
# Conditions: aldosterone agonist, repeated administration
# Description: Antialdosterone activity was determined based on urine levels of sodium and potassium following repeated administration of fludrocortisone. Safety was determined on the basis of laboratory tests, vital signs, and the occurrence and types of adverse events.
# The subjects, who underwent a ten hour food fast prior to administration of the dose, received a single oral dose of one of the study medications together with about 180 mL of water at 0800 hours. […] Each dose of fludrocortisone was administered with 150 mL of water except for the 1.0 mg dose which was administered with 200 mL of water.
# The plasma samples collected from subjects dosed with eplerenone were assayed for concentrations of eplerenone and the open lactone ring form of eplerenone. […] A subset of plasma samples was also assayed for testosterone levels. The urine collected was analyzed to determine concentrations and amounts of eplerenone and the open lactone ring form of eplerenone, the amount of sodium and potassium excreted, and the urinary log10 (sodium/potassium) ratio.
structure (smiles),measurement,value
"C[C@]12CCC(=O)C=C1CC[C@H]1[C@@H]3CC[C@](O)(C(=O)CO)[C@@]3(C)C[C@H](O)[C@@]12F [fludrocortisone, reference compound]",effect on urinary log10 (sodium/potassium) ratio,decreased
